Measured values as given in paper PMC11711618.
These are yes or no findings as the source states them, for the method shown. Binding seen in cells or lysates may run through a third protein. Some results given as binding are weak or reduced against the parent protein; the word gives no strength. Sequences can lack the tags named with a protein.

The chains behind the UniProt entries cited, without tags or fusion partners. Residues count along the entry.
UniProt Q13873, residues 27-1038: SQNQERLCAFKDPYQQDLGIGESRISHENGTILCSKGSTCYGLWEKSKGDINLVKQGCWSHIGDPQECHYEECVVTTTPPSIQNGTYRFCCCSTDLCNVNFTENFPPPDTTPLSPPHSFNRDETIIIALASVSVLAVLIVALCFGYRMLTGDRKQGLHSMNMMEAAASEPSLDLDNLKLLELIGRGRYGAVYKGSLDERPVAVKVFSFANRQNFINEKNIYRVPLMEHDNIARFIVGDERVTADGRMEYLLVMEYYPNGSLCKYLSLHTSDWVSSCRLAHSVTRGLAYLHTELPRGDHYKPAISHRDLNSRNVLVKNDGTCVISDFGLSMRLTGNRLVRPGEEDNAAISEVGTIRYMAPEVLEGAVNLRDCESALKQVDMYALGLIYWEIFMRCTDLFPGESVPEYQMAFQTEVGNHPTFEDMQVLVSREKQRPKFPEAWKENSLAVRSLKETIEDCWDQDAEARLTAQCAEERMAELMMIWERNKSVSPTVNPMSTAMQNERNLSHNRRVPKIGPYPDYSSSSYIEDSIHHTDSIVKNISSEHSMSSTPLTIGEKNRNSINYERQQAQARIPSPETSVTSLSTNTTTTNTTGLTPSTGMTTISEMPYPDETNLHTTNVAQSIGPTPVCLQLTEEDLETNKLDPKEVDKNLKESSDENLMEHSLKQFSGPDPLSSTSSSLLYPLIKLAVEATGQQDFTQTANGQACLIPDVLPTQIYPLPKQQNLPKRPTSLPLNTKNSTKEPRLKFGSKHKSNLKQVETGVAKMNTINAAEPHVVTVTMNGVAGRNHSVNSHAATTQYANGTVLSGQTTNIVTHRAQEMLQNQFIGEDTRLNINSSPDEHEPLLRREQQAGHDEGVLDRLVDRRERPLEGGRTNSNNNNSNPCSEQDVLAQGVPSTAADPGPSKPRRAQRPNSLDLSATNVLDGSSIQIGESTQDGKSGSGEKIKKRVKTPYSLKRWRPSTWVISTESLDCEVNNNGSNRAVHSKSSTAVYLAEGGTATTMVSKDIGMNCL

Target: BMPR2 (tagged, expressed in HUVECs) (human) (UniProt Q13873)
Assay: proximity ligation; DuoLink in situ PLA on transfected HUVECs expressing the two tagged proteins, seeded on glass cover slips in EC activation medium; signal seen in filopodia

B1: CDC42-effector protein 1 (CDC42EP1), also known as binder of Rho GTPase 5 (BORG5), tagged (protein, UniProt Q00587 1-391)
chain: MPGPQGGRGAATMSLGKLSPVGWVSSSQGKRRLTADMISHPLGDFRHTMHVGRGGDVFGDTSFLSNHGGSSGSTHRSPRSFLAKKLQLVRRVGAPPRRMASPPAPSPAPPAISPIIKNAISLPQLNQAAYDSLVVGKLSFDSSPTSSTDGHSSYGLDSGFCTISRLPRSEKPHDRDRDGSFPSEPGLRRSDSLLSFRLDLDLGPSLLSELLGVMSLPEAPAAETPAPAANPPAPTANPTGPAANPPATTANPPAPAANPSAPAATPTGPAANPPAPAASSTPHGHCPNGVTAGLGPVAEVKSSPVGGGPRGPAGPALGRHWGAGWDGGHHYPEMDARQERVEVLPQARASWESLDEEWRAPQAGSRTPVPSTVQANTFEFADAEEDDEVKV
In the case of B1, the binding is reported as “binds”.
